# Experimental data from the supplement of paper PMC6411743.
# Sequences of proteins named here, by UniProt entry; tags and fusion partners are left off. A change or cut given only in a name is not applied to a line headed by its entry.
# UniProt Q9P2J5: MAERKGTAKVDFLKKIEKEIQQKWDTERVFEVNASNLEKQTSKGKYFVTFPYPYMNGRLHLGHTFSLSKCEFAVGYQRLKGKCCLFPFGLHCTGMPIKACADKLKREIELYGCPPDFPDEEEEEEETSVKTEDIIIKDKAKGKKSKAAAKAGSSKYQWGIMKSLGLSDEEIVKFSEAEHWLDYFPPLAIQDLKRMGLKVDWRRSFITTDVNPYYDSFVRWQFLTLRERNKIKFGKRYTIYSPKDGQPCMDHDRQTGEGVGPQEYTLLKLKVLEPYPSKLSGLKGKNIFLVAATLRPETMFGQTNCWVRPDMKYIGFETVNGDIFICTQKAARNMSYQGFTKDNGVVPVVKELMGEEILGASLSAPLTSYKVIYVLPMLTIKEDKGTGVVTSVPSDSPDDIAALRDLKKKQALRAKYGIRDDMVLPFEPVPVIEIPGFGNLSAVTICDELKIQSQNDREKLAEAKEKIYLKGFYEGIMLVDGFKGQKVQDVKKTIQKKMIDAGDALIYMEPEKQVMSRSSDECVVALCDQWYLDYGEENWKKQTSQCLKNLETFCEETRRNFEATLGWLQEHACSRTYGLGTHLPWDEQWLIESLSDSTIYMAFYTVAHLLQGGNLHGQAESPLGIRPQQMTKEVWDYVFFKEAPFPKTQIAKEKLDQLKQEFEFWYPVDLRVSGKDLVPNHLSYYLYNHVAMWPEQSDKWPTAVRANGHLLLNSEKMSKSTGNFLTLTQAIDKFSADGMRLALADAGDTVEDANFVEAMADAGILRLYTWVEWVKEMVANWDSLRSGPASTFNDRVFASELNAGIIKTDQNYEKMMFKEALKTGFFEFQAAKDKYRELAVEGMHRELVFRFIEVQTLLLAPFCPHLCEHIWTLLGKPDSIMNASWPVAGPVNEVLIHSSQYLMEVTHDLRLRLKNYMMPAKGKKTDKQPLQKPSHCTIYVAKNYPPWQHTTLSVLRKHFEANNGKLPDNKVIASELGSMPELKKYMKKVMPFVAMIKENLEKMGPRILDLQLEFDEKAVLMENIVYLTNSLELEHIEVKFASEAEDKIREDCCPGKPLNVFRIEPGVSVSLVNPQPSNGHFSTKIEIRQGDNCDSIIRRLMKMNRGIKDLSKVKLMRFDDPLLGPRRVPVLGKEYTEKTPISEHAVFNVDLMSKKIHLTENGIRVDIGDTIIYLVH
# UniProt Q9P2D3: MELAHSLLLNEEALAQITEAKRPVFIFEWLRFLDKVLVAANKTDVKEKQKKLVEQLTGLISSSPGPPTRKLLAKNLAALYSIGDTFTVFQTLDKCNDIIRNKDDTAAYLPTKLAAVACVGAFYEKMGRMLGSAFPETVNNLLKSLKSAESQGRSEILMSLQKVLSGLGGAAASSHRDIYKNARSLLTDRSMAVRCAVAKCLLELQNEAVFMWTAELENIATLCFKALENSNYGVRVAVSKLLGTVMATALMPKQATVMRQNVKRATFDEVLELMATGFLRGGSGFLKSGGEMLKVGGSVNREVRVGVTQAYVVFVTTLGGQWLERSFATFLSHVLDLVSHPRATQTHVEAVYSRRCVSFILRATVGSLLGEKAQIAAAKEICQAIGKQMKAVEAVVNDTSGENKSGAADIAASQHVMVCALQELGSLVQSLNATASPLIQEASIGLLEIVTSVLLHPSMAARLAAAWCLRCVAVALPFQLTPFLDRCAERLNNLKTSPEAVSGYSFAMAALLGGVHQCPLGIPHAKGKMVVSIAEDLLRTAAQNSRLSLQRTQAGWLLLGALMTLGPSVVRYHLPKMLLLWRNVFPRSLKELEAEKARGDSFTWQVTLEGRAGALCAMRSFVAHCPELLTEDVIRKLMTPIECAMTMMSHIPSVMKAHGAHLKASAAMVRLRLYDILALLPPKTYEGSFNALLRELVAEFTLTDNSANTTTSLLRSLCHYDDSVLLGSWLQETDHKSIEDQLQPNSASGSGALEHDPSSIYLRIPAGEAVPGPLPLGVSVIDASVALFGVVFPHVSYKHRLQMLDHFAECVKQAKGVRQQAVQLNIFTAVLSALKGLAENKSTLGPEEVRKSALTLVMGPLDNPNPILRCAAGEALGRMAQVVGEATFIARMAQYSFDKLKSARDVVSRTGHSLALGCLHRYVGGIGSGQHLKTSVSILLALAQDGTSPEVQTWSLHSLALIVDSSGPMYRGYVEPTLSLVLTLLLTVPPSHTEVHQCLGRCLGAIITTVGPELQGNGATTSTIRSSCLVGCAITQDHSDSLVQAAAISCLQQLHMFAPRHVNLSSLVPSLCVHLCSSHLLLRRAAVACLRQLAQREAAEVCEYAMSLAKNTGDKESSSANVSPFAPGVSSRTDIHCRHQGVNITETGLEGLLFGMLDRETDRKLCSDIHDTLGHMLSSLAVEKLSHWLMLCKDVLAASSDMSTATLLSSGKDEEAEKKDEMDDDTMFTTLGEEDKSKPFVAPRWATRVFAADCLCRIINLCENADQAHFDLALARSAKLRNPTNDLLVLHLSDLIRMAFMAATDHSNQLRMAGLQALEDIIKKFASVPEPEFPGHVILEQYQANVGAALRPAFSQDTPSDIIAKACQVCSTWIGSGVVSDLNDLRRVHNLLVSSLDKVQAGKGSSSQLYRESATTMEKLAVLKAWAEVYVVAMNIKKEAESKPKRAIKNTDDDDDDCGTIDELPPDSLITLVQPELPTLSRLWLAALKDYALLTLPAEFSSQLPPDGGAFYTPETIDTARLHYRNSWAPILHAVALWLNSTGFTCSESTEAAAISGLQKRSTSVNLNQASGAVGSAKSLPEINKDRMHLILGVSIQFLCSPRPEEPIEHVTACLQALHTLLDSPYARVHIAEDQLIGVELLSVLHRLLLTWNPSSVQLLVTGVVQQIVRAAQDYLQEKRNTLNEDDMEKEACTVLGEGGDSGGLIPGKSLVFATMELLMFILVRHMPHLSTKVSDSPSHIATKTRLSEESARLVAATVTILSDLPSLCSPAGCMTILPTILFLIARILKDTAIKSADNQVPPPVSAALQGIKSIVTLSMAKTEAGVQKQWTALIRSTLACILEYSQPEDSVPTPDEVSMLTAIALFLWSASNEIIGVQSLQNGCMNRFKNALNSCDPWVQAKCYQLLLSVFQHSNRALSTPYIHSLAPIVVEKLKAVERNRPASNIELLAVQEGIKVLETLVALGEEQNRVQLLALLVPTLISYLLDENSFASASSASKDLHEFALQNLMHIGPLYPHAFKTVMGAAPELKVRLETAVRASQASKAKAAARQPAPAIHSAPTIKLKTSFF
# UniProt Q9UFW8: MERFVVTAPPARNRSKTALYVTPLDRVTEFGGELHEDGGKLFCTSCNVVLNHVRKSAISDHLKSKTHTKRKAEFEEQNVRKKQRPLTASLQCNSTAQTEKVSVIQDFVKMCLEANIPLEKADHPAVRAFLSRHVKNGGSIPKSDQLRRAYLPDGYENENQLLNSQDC
# UniProt Q9UL63, whole entry: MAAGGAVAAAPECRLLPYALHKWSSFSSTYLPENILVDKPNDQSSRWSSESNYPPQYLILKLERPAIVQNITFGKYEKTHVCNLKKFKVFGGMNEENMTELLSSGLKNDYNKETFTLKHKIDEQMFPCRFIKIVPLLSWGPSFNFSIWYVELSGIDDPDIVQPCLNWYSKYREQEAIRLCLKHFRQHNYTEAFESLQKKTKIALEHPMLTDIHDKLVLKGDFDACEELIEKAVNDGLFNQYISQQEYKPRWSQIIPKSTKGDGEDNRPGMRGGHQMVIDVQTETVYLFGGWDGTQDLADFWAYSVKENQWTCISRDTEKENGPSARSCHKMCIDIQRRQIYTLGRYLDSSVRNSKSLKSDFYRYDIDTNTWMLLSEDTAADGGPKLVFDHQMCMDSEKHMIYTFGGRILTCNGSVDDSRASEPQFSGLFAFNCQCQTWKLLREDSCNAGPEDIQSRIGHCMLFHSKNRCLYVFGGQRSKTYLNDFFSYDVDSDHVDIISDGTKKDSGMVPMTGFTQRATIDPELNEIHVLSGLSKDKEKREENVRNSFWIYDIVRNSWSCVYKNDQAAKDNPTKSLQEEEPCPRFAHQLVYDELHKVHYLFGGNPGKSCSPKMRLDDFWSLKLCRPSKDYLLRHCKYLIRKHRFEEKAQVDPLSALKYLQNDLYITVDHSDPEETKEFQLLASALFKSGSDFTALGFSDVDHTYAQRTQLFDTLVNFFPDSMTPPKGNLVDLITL
# UniProt Q9UMS0: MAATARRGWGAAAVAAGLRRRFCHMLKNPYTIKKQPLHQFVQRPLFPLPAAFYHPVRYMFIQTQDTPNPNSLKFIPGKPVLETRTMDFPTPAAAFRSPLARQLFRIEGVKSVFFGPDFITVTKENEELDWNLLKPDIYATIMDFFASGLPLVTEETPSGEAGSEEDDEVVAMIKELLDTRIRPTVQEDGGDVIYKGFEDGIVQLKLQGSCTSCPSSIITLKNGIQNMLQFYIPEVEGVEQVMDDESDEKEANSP
# UniProt Q9UHD8: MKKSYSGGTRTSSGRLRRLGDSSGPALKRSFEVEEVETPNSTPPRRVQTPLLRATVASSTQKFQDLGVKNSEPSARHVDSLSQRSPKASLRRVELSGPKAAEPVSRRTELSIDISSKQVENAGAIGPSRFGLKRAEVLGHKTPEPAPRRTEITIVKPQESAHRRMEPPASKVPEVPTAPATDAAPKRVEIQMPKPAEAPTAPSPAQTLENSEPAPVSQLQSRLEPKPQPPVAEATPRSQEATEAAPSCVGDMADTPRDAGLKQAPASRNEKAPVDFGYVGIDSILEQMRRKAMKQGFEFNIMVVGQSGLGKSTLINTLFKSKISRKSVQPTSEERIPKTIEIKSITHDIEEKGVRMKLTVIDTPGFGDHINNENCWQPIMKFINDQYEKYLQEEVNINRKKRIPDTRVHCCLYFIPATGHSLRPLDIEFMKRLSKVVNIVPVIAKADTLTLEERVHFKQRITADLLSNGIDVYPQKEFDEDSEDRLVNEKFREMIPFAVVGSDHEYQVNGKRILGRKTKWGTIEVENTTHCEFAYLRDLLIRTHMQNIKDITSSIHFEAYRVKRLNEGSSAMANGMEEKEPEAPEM
# UniProt Q9UEE9, whole entry: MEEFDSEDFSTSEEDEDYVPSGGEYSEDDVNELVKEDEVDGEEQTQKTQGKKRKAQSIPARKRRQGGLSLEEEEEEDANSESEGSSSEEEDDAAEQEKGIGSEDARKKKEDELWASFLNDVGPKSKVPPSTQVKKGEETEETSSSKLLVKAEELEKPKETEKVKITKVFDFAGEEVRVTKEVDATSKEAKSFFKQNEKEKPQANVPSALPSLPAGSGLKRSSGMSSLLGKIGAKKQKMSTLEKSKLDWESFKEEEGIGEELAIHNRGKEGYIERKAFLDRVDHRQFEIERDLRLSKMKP
# UniProt Q9Y221: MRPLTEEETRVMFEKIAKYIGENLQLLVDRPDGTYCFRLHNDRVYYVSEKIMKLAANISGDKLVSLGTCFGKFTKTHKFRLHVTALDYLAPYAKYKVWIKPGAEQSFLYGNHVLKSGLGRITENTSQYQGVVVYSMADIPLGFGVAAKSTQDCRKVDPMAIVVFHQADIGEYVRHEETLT
# UniProt Q9UBU6: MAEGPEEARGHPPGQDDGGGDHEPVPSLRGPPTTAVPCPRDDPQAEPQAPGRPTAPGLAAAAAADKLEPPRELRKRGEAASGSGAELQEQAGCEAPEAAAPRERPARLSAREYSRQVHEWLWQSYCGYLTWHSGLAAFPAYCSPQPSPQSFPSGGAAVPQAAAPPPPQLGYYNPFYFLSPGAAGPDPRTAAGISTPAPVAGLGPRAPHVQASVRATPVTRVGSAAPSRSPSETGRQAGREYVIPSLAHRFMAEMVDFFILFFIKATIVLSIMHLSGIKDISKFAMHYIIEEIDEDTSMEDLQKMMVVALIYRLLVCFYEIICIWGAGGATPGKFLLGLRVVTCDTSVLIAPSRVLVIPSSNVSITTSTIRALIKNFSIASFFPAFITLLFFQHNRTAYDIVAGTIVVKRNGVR
# UniProt Q9P2Y5: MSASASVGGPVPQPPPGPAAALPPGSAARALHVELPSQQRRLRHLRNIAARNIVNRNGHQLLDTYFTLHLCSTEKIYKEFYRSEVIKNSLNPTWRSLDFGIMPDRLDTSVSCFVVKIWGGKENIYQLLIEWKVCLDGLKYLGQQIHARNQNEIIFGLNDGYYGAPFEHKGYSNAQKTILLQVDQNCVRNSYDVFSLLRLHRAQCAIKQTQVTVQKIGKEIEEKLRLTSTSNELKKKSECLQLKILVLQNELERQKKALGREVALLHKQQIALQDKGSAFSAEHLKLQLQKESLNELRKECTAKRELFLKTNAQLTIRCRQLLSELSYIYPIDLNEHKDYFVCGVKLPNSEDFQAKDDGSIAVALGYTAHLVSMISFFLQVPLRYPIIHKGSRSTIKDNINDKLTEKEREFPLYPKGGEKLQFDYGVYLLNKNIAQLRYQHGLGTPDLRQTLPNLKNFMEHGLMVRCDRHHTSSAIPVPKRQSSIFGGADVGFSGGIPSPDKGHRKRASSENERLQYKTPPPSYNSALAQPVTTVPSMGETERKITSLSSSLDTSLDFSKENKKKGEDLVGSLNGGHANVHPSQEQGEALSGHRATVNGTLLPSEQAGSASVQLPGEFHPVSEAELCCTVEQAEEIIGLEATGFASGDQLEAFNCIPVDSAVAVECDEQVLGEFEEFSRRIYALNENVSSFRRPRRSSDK
# ± gives the standard deviation of the averaged measurements. This is a selection; strong and weak results do not stand in their true shares. Small differences around the control level are noise.
# Compound: Nc1ncnc2c1ncn2[C@@H]1O[C@H](COP(=O)(O)OP(=O)(O)OP(=O)(O)O)[C@@H](O)[C@H]1O [adenosine triphosphate]
# Experiment: NP40-soluble protein abundance relative to vehicle (solubility fold change) (ratio); higher = more soluble protein in presence of ATP
# How it was run: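 Jurkat crude lysate prepared with a Dounce homogeniser was treated at eight concentrations spanning 0.1 to 10 mM, 10 min at room temperature then 3 min at 37 °C. Solubilisation with 0.8% NP40 and benzonase and ultracentrifugation preceded TMT labelling of the supernatant for LC-MS/MS. Fold change against the detergent-processed vehicle was determined per replicate from vsn-normalised intensities, across three independent experiments.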
Target,NP40-soluble protein abundance (concentration: 0.1mM),NP40-soluble protein abundance (concentration: 0.5mM)
SEL1L (UniProt Q9UBV2),0.98 ± 0.017,0.981 ± 0.042
FAF1 (UniProt Q9UNN5),1.03 ± 0.042,1.03 ± 0.063
BCS1L (UniProt Q9Y276),1.04 ± 0.084,1.03 ± 0.028
UniProt Q9P2K3-3,0.943 ± 0.063,0.978 ± 0.04
LARS (UniProt Q9P2J5),1.04 ± 0.044,1.03 ± 0.038
UniProt Q9P2D3 and related entries,0.953 ± 0.11,0.968 ± 0.056
SMC3 (UniProt Q9UQE7),1.01 ± 0.041,1.03 ± 0.064
UniProt Q9UBI1 and related entries,1.04 ± 0.038,0.997 ± 0.052
UniProt Q9UPY8 and related entries,0.943 ± 0.087,0.959 ± 0.048
RERE (UniProt Q9P2R6),1.01 ± 0.025,0.996 ± 0.044
UniProt Q9UL40 and related entries,0.976 ± 0.044,0.972 ± 0.076
RCC2 (UniProt Q9P258),1.05 ± 0.074,1.04 ± 0.039
ZMIZ1 (UniProt Q9ULJ6),1.03 ± 0.12,1.07 ± 0.19
CGGBP1 (UniProt Q9UFW8),0.953 ± 0.083,0.947 ± 0.086
MKLN1 (UniProt Q9UL63),0.98 ± 0.035,0.944 ± 0.016
UniProt Q9UMS0 and related entries,0.924 ± 0.028,0.908 ± 0.12
SEC63 (UniProt Q9UGP8),1.01 ± 0.056,1.03 ± 0.049
UniProt Q9Y232-2|Q9Y232,0.995 ± 0.062,1.01 ± 0.037
PA2G4 (UniProt Q9UQ80),0.989 ± 0.047,1 ± 0.046
UniProt Q9UHD8 and related entries,1.02 ± 0.052,1.03 ± 0.065
UniProt Q9UPZ3 and related entries,1.01 ± 0.028,1.03 ± 0.072

# Taken from above.
# UniProt Q9Y232-2|Q9Y232 – NP40-soluble protein abundance (concentration: 0.1mM): 0.995 ± 0.062
# LARS (UniProt Q9P2J5) – NP40-soluble protein abundance (concentration: 0.1mM): 1.04 ± 0.044
# UniProt Q9UMS0 and related entries – NP40-soluble protein abundance (concentration: 0.1mM): 0.924 ± 0.028

# (further entries)

Target,NP40-soluble protein abundance (concentration: 0.1mM),NP40-soluble protein abundance (concentration: 0.5mM)
UniProt Q9UP83 and related entries,0.983 ± 0.051,0.972 ± 0.054
UniProt Q9UEW8 and related entries,1 ± 0.035,1.05 ± 0.083
APPL1 (UniProt Q9UKG1),1.07 ± 0.065,1.06 ± 0.064
VDAC3 (UniProt Q9Y277),0.995 ± 0.091,1.04 ± 0.02
UniProt Q9UNL4 and related entries,1 ± 0.1,1.07 ± 0.035
RUVBL2 (UniProt Q9Y230),1.05 ± 0.015,1.11 ± 0.035
DIP2B (UniProt Q9P265),1.02 ± 0.026,1 ± 0.028
AFF4 (UniProt Q9UHB7),1.023 ± 0.0061,1.05 ± 0.065
UniProt Q9P2A4 and related entries,1 ± 0.021,1.022 ± 0.0087
POLG2 (UniProt Q9UHN1),1.02 ± 0.046,0.998 ± 0.022
SWAP70 (UniProt Q9UH65),1 ± 0.027,1.01 ± 0.071
RAB21 (UniProt Q9UL25),0.945 ± 0.027,0.966 ± 0.0098
UniProt Q9UJU2 and related entries,0.932 ± 0.034,0.946 ± 0.043
SRP68 (UniProt Q9UHB9),1 ± 0.0054,1 ± 0.04
UniProt Q9UDW1,0.809 ± 0.14,0.818 ± 0.27
UniProt Q9ULU4 and related entries,0.989 ± 0.038,1.04 ± 0.059
CFDP1 (UniProt Q9UEE9),0.955 ± 0.021,0.932 ± 0.022
UniProt Q9Y221 and related entries,1.06 ± 0.037,1.18 ± 0.11
CHORDC1 (UniProt Q9UHD1),1.03 ± 0.091,1.05 ± 0.065
VPS51 (UniProt Q9UID3),1.02 ± 0.028,1 ± 0.023
LRWD1 (UniProt Q9UFC0),1.03 ± 0.051,1.05 ± 0.047

Target,NP40-soluble protein abundance (concentration: 0.1mM),NP40-soluble protein abundance (concentration: 0.5mM)
UniProt Q9UBP0 and related entries,1.01 ± 0.028,1.01 ± 0.024
KMT2B (UniProt Q9UMN6),0.987 ± 0.017,0.993 ± 0.051
UniProt Q9UKM9 and related entries,0.967 ± 0.056,1.03 ± 0.1
UniProt Q9ULP9 and related entries,1.03 ± 0.08,1 ± 0.035
UniProt Q9Y252,0.96 ± 0.086,1.01 ± 0.1
MRTO4 (UniProt Q9UKD2),1 ± 0.068,1.1 ± 0.051
PLXNA1 (UniProt Q9UIW2),1.03 ± 0.062,0.998 ± 0.039
STUB1 (UniProt Q9UNE7),0.965 ± 0.042,0.954 ± 0.03
FAM8A1 (UniProt Q9UBU6),1.01 ± 0.06,1 ± 0.08
PPM1H (UniProt Q9ULR3),1.03 ± 0.063,1.06 ± 0.06
COPS3 (UniProt Q9UNS2),0.922 ± 0.028,0.919 ± 0.065
SMG5 (UniProt Q9UPR3),1.07 ± 0.025,0.966 ± 0.012
ZMYM2 (UniProt Q9UBW7),0.994 ± 0.021,0.974 ± 0.045
UniProt Q9UI26 and related entries,1.05 ± 0.058,1.08 ± 0.059
AASS (UniProt Q9UDR5),1.06 ± 0.077,1.06 ± 0.067
CYB5R1 (UniProt Q9UHQ9),1.03 ± 0.079,1.06 ± 0.097
UVRAG (UniProt Q9P2Y5),1.04 ± 0.026,1.08 ± 0.071
ATXN10 (UniProt Q9UBB4),0.951 ± 0.035,0.956 ± 0.0092
EXTL2 (UniProt Q9UBQ6),1.02 ± 0.029,0.982 ± 0.064
